Data published in US20060257938A1, “Method of screening for drugs that block ligand binding to a lipid binding protein” (priority 2005, published 2006).
Residue numbers refer to the chain shown, from its start.

B1: 119S, 72A (protein, listed as Rattus norvegicus)
chain: AFDGTWKVDRNENYEKFMEKMGINVVKRKLGAHDNLKLTITQEGNKFTVKESSNFRNIDVVFELGVDFAYSAADGTELTGTWTMEGNKLVGKFKRVDNGKELIAVREISGNELIQTYTSEGVEAKRIFKKE
modifications: PEPTIDE (1)...(131) wild-type rat intestinal fatty acid binding protein
B2: 102F, 72A (protein, listed as Rattus norvegicus)
chain: B1 chain with L102F, S119Y
modifications: PEPTIDE (1)...(131) wild-type rat intestinal fatty acid binding protein
B3: 119H, 72A (protein, listed as Rattus norvegicus)
chain: B1 chain with S119H
modifications: PEPTIDE (1)...(131) wild-type rat intestinal fatty acid binding protein
B4: 119I, 72A (protein, listed as Rattus norvegicus)
chain: B1 chain with S119I
modifications: PEPTIDE (1)...(131) wild-type rat intestinal fatty acid binding protein
B5: 119K, 72A (protein, listed as Rattus norvegicus)
chain: B1 chain with S119K
modifications: PEPTIDE (1)...(131) wild-type rat intestinal fatty acid binding protein
B6: 119Q, 72A (protein, listed as Rattus norvegicus)
chain: B1 chain with S119Q
modifications: PEPTIDE (1)...(131) wild-type rat intestinal fatty acid binding protein
B7: 119T, 72A (protein, listed as Rattus norvegicus)
chain: B1 chain with S119T
modifications: PEPTIDE (1)...(131) wild-type rat intestinal fatty acid binding protein
B8: 119V, 72A (protein, listed as Rattus norvegicus)
chain: B1 chain with S119V
modifications: PEPTIDE (1)...(131) wild-type rat intestinal fatty acid binding protein
B9: 11C, 72A (protein, listed as Rattus norvegicus)
chain: B1 chain with N11C, S119Y
modifications: PEPTIDE (1)...(131) wild-type rat intestinal fatty acid binding protein
B10: 11G, 72A (protein, listed as Rattus norvegicus)
chain: B1 chain with N11G, S119Y
modifications: PEPTIDE (1)...(131) wild-type rat intestinal fatty acid binding protein
B11: 102G, 72A (protein, listed as Rattus norvegicus)
chain: B1 chain with L102G, S119Y
modifications: PEPTIDE (1)...(131) wild-type rat intestinal fatty acid binding protein
B12: 102H, 72A (protein, listed as Rattus norvegicus)
chain: B1 chain with L102H, S119Y
modifications: PEPTIDE (1)...(131) wild-type rat intestinal fatty acid binding protein
B13: 11Y1, 72A (protein, listed as Rattus norvegicus)
chain: B1 chain with N11Y, S119Y
modifications: PEPTIDE (1)...(131) wild-type rat intestinal fatty acid binding protein
B14: 11Y1, L72A (protein, listed as Rattus norvegicus)
chain: B1 chain with N11Y, S119Y
modifications: PEPTIDE (1)...(131) wild-type rat intestinal fatty acid binding protein
B15: 126A, 72A (protein, listed as Rattus norvegicus)
chain: B1 chain with S119Y, R126A
modifications: PEPTIDE (1)...(131) wild-type rat intestinal fatty acid binding protein
B16: 126D, 72A (protein, listed as Rattus norvegicus)
chain: B1 chain with S119Y, R126D
modifications: PEPTIDE (1)...(131) wild-type rat intestinal fatty acid binding protein
B17: 126E, 72A (protein, listed as Rattus norvegicus)
chain: B1 chain with S119Y, R126E
modifications: PEPTIDE (1)...(131) wild-type rat intestinal fatty acid binding protein
B18: 126F, 72A (protein, listed as Rattus norvegicus)
chain: B1 chain with S119Y, R126F
modifications: PEPTIDE (1)...(131) wild-type rat intestinal fatty acid binding protein
B19: 126H, 72A (protein, listed as Rattus norvegicus)
chain: B1 chain with S119Y, R126H
modifications: PEPTIDE (1)...(131) wild-type rat intestinal fatty acid binding protein
B20: 126I, 72A (protein, listed as Rattus norvegicus)
chain: B1 chain with S119Y, R126I
modifications: PEPTIDE (1)...(131) wild-type rat intestinal fatty acid binding protein
B21: 126L, 72A (protein, listed as Rattus norvegicus)
chain: B1 chain with S119Y, R126L
modifications: PEPTIDE (1)...(131) wild-type rat intestinal fatty acid binding protein
B22: 126M, 72A (protein, listed as Rattus norvegicus)
chain: B1 chain with S119Y, R126M
modifications: PEPTIDE (1)...(131) wild-type rat intestinal fatty acid binding protein
B23: 126V, 72A (protein, listed as Rattus norvegicus)
chain: B1 chain with S119Y, R126V
modifications: PEPTIDE (1)...(131) wild-type rat intestinal fatty acid binding protein
B24: 14A, 72A (protein, listed as Rattus norvegicus)
chain: B1 chain with Y14A, S119Y
modifications: PEPTIDE (1)...(131) wild-type rat intestinal fatty acid binding protein
B25: 14D, 72A (protein, listed as Rattus norvegicus)
chain: B1 chain with Y14D, S119Y
modifications: PEPTIDE (1)...(131) wild-type rat intestinal fatty acid binding protein
B26: 14E, 72A (protein, listed as Rattus norvegicus)
chain: B1 chain with Y14E, S119Y
modifications: PEPTIDE (1)...(131) wild-type rat intestinal fatty acid binding protein
B27: 102I, 72A (protein, listed as Rattus norvegicus)
chain: B1 chain with L102I, S119Y
modifications: PEPTIDE (1)...(131) wild-type rat intestinal fatty acid binding protein
B28: 14F, 72A (protein, listed as Rattus norvegicus)
chain: B1 chain with Y14F, S119Y
modifications: PEPTIDE (1)...(131) wild-type rat intestinal fatty acid binding protein
B29: 14G, 72A (protein, listed as Rattus norvegicus)
chain: B1 chain with Y14G, S119Y
modifications: PEPTIDE (1)...(131) wild-type rat intestinal fatty acid binding protein
B30: 14H, 72A (protein, listed as Rattus norvegicus)
chain: B1 chain with Y14H, S119Y
modifications: PEPTIDE (1)...(131) wild-type rat intestinal fatty acid binding protein
B31: 14I, 72A (protein, listed as Rattus norvegicus)
chain: B1 chain with Y14I, S119Y
modifications: PEPTIDE (1)...(131) wild-type rat intestinal fatty acid binding protein
B32: 14K, 72A (protein, listed as Rattus norvegicus)
chain: B1 chain with Y14K, S119Y
modifications: PEPTIDE (1)...(131) wild-type rat intestinal fatty acid binding protein
B33: 14L, 72A (protein, listed as Rattus norvegicus)
chain: B1 chain with Y14L, S119Y
modifications: PEPTIDE (1)...(131) wild-type rat intestinal fatty acid binding protein
B34: 14M, 72A (protein, listed as Rattus norvegicus)
chain: B1 chain with Y14M, S119Y
modifications: PEPTIDE (1)...(131) wild-type rat intestinal fatty acid binding protein

Assay: Baseline fluorescence ratio Ro of probe in absence of analyte
Details: baseline fluorescence ratio of probe

| Molecule | Ro |
| --- | --- |
| B1 | 0.313 |
| B2 | 0.218 |

Same assay, conditions: baseline fluorescence ratio of probe, no fatty acid

| Molecule | AvgOfRo | Ro |
| --- | --- | --- |
| B3 | 0.33 | – |
| B4 | 0.33 | 0.303 |
| B5 | 0.31 | – |
| B6 | 0.52 | – |
| B1 | 0.31 | 0.313 |
| B7 | 0.25 | – |
| B8 | 0.33 | 0.344 |
| B9 | 0.45 | – |
| B2 | 0.25 | – |
| B10 | 0.14 | – |
| B11 | 0.38 | – |
| B12 | 0.37 | – |
| B13 | 0.31 | – |
| B14 | 0.33 | – |
| B15 | 0.19 | – |
| B16 | 0.38 | – |
| B17 | 0.33 | – |

| Molecule | AvgOfRo | Ro |
| --- | --- | --- |
| B18 | 0.38 | – |
| B19 | 0.31 | – |
| B20 | 0.30 | – |
| B21 | 0.34 | – |
| B22 | 0.32 | – |
| B23 | 0.28 | – |
| B24 | 0.44 | – |
| B25 | 0.44 | – |
| B26 | 0.41 | – |
| B27 | 0.22 | 0.217 |
| B28 | 0.22 | – |
| B29 | 0.44 | – |
| B30 | 0.35 | – |
| B31 | 0.39 | 0.391 |
| B32 | 0.36 | – |
| B33 | 0.31 | – |
| B34 | 0.33 | 0.326 |
